PubChem BioAssay AID1259286, Sanger Institute, 2017
Here is one part, drawn at random, of 794 reagents. 17 of them (2.1%) count as active. 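Calls use knock-down alone only; synergy above 0.15 marked separately; viability seems capped at control level; exposure time not given.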 Unmarked entries are inactive. Not given: the amount of reagent, the time to read-out.

Test: 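Kinase knock-downs that reduce colorectal cancer cell viability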 (primary screen)
Cell system: NCI-H630 human colorectal cancer cells
Reagent: siRNA pool against human genes
Conditions: anchor drugs BYL719 at 1 µM, cetuximab at 5 µg/ml or trametinib at 10 nM, or DMSO vehicle alone; exposure time not given
Measurement: 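Replicate-averaged viability as a fraction of non-targeting control, knock-down-alone robust z-score, and per-drug synergy scores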
Direction: viability z-score, knock-down alone: higher = more viable cells, weaker knock-down effect; viability vs control, knock-down alone: higher = more viable cells; synergy score with trametinib: higher = stronger synergistic killing with trametinib; synergy score with BYL719: higher = stronger synergistic killing with BYL719; synergy score with cetuximab: higher = stronger synergistic killing with cetuximab
Rule for the call: 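Essential call: robust z-score of viability with siRNA alone lower than -3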
Calls: active = essential when knocked down alone; inactive = not essential alone

gene	viability z-score, knock-down alone	viability vs control, knock-down alone (fraction of control)	synergy score with trametinib	synergy score with BYL719	synergy score with cetuximab
ULK1	0.464	1	-0.00521	0.00174	0.0436
UCK2	0.464	1	-0.0479	-0.0814	0.0217
PRKCD	-0.997	0.945	0.0305	-0.0339	0.0557
AK3	0.464	1	-0.0479	-0.00345	0.0362
MAPKAPK5	0.464	1	-0.0479	0.0468	0.0755
STK33	0.464	1	-0.0266	-0.0814	0.00966
PAK6	0.464	1	-0.0479	-0.0814	0.0165
MAPK4	-0.523	0.963	-0.0834	-0.0275	-0.0215
MST1R	0.464	1	-0.0479	0.0339	0.00386
AK4	-1.98	0.908	-0.0768	-0.101	-0.134
PACSIN1	0.464	1	-0.0288	-0.00449	-0.0404
AAK1	0.464	1	-0.0479	0.0835	0.113
GK2	0.464	1	-0.0479	-0.0814	0.0226
PRKACA	0.464	1	-0.0479	-0.0814	-0.0546
PRKX	0.464	1	-0.0479	-0.0814	-0.0803
PKIB	0.464	1	-0.0479	-0.0789	-0.0469
CNOT1	-3.26 (active)	0.859	-0.0293	-0.00737	-0.0294
ULK2	0.464	1	0.0371	0.0592	0.0368
DGKB	0.00521	0.983	0.0068	0.0112	0.0878
CKB	0.464	1	-0.0479	-0.0814	-0.0365
STK38L	0.339	0.995	-0.0524	0.0397	-0.0281
UCKL1	0.464	1	-0.0479	-0.00375	0.022
ERBB3	-0.462	0.965	-0.0812	-0.107	-0.0215
PIK3R3	0.464	1	-0.0479	-0.0814	0.0261
AGK	0.464	1	-0.0369	-0.0814	-0.0606
NF1	0.464	1	0.0188	-0.0531	-0.0707
GOLGA5	0.0848	0.986	-0.0415	-0.0946	0.0217
EPHB2	0.464	1	0.0128	0.00347	0.00334
CDK16	0.464	1	-0.0479	0.0242	0.0612
GNE	0.464	1	-0.0423	-0.0814	-0.0194
PDK1	0.464	1	-0.0161	-0.0321	-0.121
NEK11	0.464	1	-0.0479	-0.0577	0.0318
TP53BP1	0.464	1	-0.0245	-0.0814	0.00777
SKAP1	0.464	1	-0.0479	-0.0814	-0.0475

Records listed above marked active (1):
gene	viability z-score, knock-down alone	viability vs control, knock-down alone (fraction of control)	synergy score with trametinib	synergy score with BYL719	synergy score with cetuximab
CNOT1	-3.26 (active)	0.859	-0.0293	-0.00737	-0.0294
